These are yes or no findings as the source states them, for the method shown. Binding seen in cells or lysates may run through a third protein. Some binding calls cover weakened binding; strength is not graded here.
Target: T1, CDK8 (Xenopus egg extract) (Xenopus laevis (endogenous in egg extract)) (UniProt Q66KH9)
T1 sequence: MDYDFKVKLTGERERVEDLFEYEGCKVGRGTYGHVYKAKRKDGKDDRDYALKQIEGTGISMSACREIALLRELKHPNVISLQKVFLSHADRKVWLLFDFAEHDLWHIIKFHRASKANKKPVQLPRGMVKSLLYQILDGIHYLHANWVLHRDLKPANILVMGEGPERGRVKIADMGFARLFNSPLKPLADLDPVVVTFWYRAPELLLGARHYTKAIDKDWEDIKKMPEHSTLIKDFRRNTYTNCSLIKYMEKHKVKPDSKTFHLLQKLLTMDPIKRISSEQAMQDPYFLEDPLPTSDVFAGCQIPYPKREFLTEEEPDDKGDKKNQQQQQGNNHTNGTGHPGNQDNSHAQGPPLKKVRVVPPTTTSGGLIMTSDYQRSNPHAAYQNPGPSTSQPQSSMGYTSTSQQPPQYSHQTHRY
Assay: co-IP

B1: Cyclin C (Xenopus egg extract) (protein, UniProt Q4KLA0 1-283)
chain: MAGNFWQSSHYLQWILDKQDLLKERQKDLKFLSEEEYWKLQIFFTNVIQALGEHLKLRQQVIATATVYFKRFYARYSLKSIDPVLMAPTCVFLASKVEEFGVVSNTRLISAATSVLKTRFSYAFPKEFPYRMNHILECEFYLLELMDCCLIVYHPYRPLLQYVQDMGQEDMLLPLAWRIVNDTYRTDLCLLYPPFMIALACLHVACVVQQKDARQWFAELSVDMEKILEIIRVILKLYEQWKNFDERKEMASILSKMPKPKPPPNSDGEQGTNGSQSSGYSQS
B1 was tested, and the binding was “binds”.

From doi:10.1101/2025.11.06.686927
